# Reference: US7932227 (UNIVERSITY OF VIRGINIA PATENT FOUNDATION, dated 2011)
# These are yes or no findings as the source states them, for the method shown. A result given as binding can be weak or reduced; the word gives no strength.
# B1: lacritin-intein (lacritin coupled to chitin beads via chitin-binding intein) (ligand, not shown: small tags and cut ends)
# chain: EDASSDSTGADPAQEAGTSKPNEEISGPAEPASPPETTTTAQETSAAAVQGTAKVTSSRQELNPLKSIVEKSILLTEQALAKAGKGMHGGVPGGKQFIENGSEFAQKLLKKFSLLKPWA
# notes: Bacterial fusion protein held on chitin beads; also called lacritin-intein beads; lacritin column
# Legend:
# [1] = target: human SDC1 'del 51-310' (human); test: lacritin-intein beads with lysate of HEK293T transfectants, 3G10 blot
# [2] = target: human SDC1 'del 51-252' (human); test: as above
binder,measurement,setting,value
B1,binding,[1],binds
same,binding,[2],binds
